Experimental data from publication PMC10352378.
No constants are given. Whether binding was seen depends on the method and setting. Binding seen in cells or lysates may run through a third protein. Some binding calls cover weakened binding; strength is not graded here.

Amino acid sequences for entries named in this document (tags omitted).
UniProt Q9Y490: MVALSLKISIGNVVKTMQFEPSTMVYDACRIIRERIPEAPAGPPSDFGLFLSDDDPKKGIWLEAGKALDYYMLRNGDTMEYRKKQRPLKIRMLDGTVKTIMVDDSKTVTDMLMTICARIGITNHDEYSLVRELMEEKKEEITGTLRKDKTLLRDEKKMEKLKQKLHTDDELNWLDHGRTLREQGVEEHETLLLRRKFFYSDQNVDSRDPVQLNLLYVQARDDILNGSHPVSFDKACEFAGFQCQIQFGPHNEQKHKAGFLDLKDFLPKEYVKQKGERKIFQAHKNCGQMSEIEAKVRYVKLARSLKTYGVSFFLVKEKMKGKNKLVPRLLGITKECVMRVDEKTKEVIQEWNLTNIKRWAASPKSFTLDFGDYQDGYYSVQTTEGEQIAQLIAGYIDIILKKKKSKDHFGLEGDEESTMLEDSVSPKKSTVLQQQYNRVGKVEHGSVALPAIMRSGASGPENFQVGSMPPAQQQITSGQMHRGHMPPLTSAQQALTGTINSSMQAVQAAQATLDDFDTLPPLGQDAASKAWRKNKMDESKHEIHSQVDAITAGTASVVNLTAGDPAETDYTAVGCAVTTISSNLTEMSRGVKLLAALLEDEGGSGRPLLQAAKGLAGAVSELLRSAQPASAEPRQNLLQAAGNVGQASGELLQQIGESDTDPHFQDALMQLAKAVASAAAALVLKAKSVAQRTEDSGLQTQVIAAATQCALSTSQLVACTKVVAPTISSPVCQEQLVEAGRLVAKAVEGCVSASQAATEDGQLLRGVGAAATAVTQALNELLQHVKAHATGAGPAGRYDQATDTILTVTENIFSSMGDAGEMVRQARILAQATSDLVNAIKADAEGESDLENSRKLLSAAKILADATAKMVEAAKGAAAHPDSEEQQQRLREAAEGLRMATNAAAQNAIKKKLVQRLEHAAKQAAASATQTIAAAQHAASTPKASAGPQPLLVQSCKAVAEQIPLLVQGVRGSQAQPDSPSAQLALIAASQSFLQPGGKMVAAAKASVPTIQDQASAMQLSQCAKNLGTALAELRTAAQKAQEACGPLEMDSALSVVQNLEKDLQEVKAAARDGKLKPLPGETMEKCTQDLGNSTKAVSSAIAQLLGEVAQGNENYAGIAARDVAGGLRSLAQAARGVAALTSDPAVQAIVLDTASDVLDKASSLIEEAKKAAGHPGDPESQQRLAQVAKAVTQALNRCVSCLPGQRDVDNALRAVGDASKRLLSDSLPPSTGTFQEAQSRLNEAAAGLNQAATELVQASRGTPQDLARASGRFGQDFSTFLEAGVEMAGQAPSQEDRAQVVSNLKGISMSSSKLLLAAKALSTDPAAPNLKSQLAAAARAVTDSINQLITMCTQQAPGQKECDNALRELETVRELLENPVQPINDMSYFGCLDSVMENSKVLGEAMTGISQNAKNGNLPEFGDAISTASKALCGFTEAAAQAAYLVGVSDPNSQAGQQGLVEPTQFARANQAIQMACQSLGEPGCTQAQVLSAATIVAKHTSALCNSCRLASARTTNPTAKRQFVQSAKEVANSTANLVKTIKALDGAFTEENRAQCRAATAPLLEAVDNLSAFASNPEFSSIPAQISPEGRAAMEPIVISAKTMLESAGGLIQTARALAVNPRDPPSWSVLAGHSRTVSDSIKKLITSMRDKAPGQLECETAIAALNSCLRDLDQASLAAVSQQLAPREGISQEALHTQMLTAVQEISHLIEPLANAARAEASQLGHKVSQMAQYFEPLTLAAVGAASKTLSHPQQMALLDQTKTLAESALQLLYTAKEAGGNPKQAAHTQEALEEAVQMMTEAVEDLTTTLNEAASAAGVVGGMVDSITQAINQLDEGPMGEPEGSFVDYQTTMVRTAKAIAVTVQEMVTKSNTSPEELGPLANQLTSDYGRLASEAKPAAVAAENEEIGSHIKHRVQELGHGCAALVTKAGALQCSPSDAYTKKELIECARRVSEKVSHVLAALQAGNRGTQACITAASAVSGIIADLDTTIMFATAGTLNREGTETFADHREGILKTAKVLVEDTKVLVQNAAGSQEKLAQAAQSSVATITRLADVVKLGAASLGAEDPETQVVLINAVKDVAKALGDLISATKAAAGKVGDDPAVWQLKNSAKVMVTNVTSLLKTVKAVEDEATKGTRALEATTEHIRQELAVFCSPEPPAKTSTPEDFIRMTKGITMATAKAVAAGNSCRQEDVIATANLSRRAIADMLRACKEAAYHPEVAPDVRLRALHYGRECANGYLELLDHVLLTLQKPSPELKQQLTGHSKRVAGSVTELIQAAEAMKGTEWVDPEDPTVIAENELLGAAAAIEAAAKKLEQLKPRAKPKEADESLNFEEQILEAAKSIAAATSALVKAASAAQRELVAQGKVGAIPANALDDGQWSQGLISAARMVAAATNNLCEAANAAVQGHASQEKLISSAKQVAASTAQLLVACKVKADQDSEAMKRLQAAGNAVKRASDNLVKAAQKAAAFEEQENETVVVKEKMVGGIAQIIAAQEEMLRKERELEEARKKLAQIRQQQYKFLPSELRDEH
UniProt P19474: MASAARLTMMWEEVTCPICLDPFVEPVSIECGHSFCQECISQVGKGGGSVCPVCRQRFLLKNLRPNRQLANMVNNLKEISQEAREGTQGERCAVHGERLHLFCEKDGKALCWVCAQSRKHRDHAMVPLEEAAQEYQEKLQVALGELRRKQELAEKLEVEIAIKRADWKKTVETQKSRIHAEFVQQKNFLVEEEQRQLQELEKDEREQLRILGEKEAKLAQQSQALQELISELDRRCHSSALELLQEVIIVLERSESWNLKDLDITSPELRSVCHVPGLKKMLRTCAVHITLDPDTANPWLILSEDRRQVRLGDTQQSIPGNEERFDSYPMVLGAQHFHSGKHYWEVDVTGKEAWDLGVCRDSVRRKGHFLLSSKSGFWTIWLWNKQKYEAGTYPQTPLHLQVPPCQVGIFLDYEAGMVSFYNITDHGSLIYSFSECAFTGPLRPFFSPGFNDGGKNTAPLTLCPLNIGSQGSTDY

Assays:
talin1-Myc [1] = biological target: talin1-Myc (UniProt Q9Y490); test: co-IP; talin1-Myc and TRIM21-Flag co-expressed in HEK293T cells; IP with anti-Myc, blot for Flag
talin1-Myc [2] = biological target: talin1-Myc (UniProt Q9Y490); test: co-IP; HEK293T cells with talin1-Myc, Flag-TRIM21 and overexpressed HA-BCKDK; IP with anti-Myc antibody, IB for HA-BCKDK and Flag-TRIM21

For “TRIM21-Flag (from UniProt P19474 1-475) (enzyme)”, the binding (talin1-Myc [1]) was “binds” and the binding (talin1-Myc [2]) was “binds”.
